These results are taken from publication PMC7540872.

The chains behind the UniProt entries cited, without tags or fusion partners.
UniProt Q9RBS2: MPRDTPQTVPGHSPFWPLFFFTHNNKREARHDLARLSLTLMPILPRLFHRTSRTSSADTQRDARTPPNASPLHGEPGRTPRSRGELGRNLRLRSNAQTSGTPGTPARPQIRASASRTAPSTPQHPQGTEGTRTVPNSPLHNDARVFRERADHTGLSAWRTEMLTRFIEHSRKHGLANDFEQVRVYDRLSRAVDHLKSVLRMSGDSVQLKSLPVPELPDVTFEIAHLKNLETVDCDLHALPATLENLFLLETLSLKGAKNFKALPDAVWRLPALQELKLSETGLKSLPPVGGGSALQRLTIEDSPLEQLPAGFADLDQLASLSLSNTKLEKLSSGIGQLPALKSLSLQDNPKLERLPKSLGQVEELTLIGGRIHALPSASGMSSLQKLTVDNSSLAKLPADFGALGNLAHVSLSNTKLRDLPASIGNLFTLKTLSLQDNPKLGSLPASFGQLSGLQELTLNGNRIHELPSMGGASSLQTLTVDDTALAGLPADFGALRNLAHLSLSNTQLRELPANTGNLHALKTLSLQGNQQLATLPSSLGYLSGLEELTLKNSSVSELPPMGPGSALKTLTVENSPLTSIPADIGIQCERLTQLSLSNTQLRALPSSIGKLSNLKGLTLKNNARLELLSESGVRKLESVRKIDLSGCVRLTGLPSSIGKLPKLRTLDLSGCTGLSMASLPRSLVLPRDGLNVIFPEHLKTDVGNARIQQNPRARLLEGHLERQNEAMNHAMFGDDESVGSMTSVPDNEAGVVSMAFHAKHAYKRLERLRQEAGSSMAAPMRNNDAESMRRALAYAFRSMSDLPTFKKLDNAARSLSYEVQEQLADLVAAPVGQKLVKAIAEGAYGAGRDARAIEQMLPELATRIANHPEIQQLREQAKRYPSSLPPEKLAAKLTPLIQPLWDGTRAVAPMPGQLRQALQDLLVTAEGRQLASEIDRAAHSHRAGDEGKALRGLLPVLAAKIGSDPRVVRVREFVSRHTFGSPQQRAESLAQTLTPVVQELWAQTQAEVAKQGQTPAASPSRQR

Changes are numbered by the printed parent chain. Numbers in names are those of the source. No constants are given. Whether binding was seen depends on the method and setting. In cells and extracts the contact can be indirect. Some binding calls cover weakened binding; strength is not graded here. For part of these data: Sequences can lack the tags named with a protein.

Test [1] has as its target T1, cLUC-AtSGT1b (Arabidopsis) (UniProt Q9SUT5).
T1 sequence: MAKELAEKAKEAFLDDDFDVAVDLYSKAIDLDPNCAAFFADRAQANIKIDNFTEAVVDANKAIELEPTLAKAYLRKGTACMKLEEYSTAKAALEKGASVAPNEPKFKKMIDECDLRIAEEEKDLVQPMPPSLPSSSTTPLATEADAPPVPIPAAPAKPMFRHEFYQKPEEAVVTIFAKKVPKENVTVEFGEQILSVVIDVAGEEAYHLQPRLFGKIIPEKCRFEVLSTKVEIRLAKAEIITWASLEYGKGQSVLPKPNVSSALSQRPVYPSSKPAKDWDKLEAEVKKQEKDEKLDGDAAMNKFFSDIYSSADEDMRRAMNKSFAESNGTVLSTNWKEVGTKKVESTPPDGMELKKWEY
As to the kind of experiment: split reporter.

The target of test [2] is RipAC tagged with one of the portions of a split-YFP molecule (Ralstonia solanacearum GMI1000) (UniProt Q9RBS2). As to the kind of experiment: split reporter.
The target in test [3] is T2, RPS2 fused to a luciferase half (UniProt Q42484).
T2 sequence: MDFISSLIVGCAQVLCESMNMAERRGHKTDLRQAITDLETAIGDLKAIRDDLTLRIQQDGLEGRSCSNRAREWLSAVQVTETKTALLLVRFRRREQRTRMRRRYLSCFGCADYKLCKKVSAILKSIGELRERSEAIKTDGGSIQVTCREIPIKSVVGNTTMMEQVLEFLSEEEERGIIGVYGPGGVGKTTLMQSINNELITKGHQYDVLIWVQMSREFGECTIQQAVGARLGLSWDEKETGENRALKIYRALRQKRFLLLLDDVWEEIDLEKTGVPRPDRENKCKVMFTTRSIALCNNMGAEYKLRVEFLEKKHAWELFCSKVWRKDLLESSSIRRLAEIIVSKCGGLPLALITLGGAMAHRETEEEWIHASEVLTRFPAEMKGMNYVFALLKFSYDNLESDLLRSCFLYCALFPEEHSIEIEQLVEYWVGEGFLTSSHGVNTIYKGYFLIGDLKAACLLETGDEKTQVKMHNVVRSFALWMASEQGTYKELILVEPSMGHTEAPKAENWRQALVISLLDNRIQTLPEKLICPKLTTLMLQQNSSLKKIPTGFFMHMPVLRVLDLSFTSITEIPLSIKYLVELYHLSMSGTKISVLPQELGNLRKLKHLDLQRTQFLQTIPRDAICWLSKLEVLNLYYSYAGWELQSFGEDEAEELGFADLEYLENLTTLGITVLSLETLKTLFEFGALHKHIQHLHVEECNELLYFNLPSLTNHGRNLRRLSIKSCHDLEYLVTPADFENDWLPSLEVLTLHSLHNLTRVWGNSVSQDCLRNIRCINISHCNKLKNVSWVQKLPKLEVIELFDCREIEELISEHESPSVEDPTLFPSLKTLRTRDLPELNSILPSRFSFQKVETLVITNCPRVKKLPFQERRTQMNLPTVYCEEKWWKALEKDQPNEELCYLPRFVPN
As to the kind of experiment: split reporter; Split-LUC in N. benthamiana leaves (Agrobacterium OD600 = 0.2); CCD imaging and microplate luminescence reader.

Test [4] has as its target RipAC-GFP (Ralstonia solanacearum GMI1000) (UniProt Q9RBS2). Description: co-IP.

Turning to RipAC-GFP (from UniProt Q9RBS2 1-1024), the binding result in test [1] is listed as “binds”.

B1: AtSGT1a tagged with one of the portions of a split-YFP molecule (protein, UniProt Q9SUR9 1-350)
chain: MAKELADKAKEAFVDDDFDVAVDLYSKAIDLDPNCAEFFADRAQAYIKLESFTEAVADANKAIELDPSLTKAYLRKGTACMKLEEYRTAKTALEKGASITPSESKFKKLIDECNFLITEEEKDLVQPVPSTLPSSVTAPPVSELDVTPTAKYRHEYYQKPEEVVVTVFAKGIPKQNVNIDFGEQILSVVIEVPGEDAYYLQPRLFGKIIPDKCKYEVLSTKIEICLAKADIITWASLEHGKGPAVLPKPNVSSEVSQRPAYPSSKKVKDWDKLEAEVKKQEKDEKLEGDAALNKFFREIYQNADEDMRRAMSKSFVESNGTVLSTNWQEVGTKTIESTPPDGMELKKWEI
As to B1, the binding entry in test [2] is listed as “binds”.

B2: AtSGT1b tagged with one of the portions of a split-YFP molecule (protein, UniProt Q9SUT5 1-358)
chain: T1 sequence
Regarding B2, the binding entry in test [2] is on record as “binds”.

B3: AtSGT1b T346A fused to a luciferase half (protein, UniProt Q9SUT5 1-358)
chain: T1 sequence with T346A
Take B3: the binding entry in test [3] is “binds”.

B4: cLUC-AtSGT1b (protein, UniProt Q9SUT5 1-358)
chain: T1 sequence
As for B4, the binding result in test [3] was “binds”.

B5: AtSGT1b (transiently expressed, CoIP) (protein, UniProt Q9SUT5 1-358)
chain: T1 sequence
With B5, in test [4], the binding entry was “binds”.
